Sequences of proteins named here, by UniProt entry; tags and fusion partners are left off. A change or cut given only in a name is not applied to a line headed by its entry. A line that says so, or that is headed by a name, gives the form on record, which may keep a tag or linker.
UniProt Q8IXL6: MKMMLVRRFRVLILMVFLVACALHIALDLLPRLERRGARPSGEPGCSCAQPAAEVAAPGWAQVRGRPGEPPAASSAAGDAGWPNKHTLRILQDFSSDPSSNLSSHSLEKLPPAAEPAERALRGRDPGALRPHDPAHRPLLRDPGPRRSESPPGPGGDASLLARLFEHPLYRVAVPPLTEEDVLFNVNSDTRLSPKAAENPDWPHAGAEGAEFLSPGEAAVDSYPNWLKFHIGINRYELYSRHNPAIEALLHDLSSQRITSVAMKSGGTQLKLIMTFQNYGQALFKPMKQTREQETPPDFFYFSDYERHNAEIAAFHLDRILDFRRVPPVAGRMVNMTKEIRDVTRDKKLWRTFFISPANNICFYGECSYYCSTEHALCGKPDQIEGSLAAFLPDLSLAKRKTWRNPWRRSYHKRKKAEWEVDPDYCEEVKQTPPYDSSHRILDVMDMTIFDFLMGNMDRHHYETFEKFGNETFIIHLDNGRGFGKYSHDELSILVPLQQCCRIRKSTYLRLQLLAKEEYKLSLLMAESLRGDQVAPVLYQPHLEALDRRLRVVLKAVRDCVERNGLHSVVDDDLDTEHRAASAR
Scaffold attachment factor B, HA-tagged (SAFB-HA) (Q15424-3, form named): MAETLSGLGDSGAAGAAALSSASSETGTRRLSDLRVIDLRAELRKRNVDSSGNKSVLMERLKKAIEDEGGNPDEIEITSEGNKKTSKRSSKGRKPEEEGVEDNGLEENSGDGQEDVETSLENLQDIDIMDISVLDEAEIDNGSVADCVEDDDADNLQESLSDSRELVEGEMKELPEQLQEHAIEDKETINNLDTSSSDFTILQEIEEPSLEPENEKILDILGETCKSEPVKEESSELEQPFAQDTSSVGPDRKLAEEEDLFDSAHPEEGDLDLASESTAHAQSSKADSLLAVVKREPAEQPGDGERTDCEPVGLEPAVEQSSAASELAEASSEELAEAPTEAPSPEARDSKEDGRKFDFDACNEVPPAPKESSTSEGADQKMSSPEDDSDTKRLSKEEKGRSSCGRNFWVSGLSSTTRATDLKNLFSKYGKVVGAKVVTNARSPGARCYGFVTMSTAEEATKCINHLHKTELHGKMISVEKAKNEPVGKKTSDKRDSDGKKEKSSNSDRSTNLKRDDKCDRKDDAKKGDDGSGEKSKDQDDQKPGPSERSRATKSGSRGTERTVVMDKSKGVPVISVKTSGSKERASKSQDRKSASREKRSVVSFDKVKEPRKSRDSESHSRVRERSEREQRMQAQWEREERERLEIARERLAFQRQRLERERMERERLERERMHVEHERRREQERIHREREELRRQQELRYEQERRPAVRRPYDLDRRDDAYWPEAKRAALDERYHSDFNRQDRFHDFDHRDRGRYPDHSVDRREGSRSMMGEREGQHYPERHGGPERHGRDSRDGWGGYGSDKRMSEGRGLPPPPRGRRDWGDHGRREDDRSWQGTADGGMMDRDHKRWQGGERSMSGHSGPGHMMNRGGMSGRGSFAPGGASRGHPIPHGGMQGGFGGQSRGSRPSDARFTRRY

In paper PMC12774626:

Columns and labels:
[1] = molecular target: Extracellular serine/threonine protein kinase FAM20C, FLAG-tagged (FAM20C-FLAG) (UniProt Q8IXL6); test: co-IP; plasmids co-transfected into HEK293T cells in specified combinations; which partner was precipitated is not stated
[2] = molecular target: FAM20C-D478A-FLAG, catalytically inactive variant (UniProt Q8IXL6); test: as above

What does the source list for “KRAB-associated protein 1, HA-tagged (KAP1-HA), in HEK293T (from UniProt Q13263-1 1-835)”?
binding [1]: binds; binding [2]: binds

With “Sequestosome 1, HA-tagged (SQSTM1-HA) (from UniProt Q13501-2 1-356)” as the molecule, how does the binding [1] read?
The binding was “no binding”.

What about the binding [2] of the same molecule?
Its binding is “no binding”.

Which binding [1] does the source give for “Scaffold attachment factor B, HA-tagged (SAFB-HA) (from UniProt Q15424-3 1-917)” here?
Its binding is “binds”.

And the binding [2]?
The binding was “binds”.

B1: Adenosine deaminase RNA specific (ADAR), in HEK293T (enzyme, UniProt P55265-5 1-931)
chain: MAEIKEKICDYLFNVSDSSALNLAKNIGLTKARDINAVLIDMERQGDVYRQGTTPPIWHLTDKKRERMQIKRNTNSVPETAPAAIPETKRNAEFLTCNIPTSNASNNMVTTEKVENGQEPVIKLENRQEARPEPARLKPPVHYNGPSKAGYVDFENGQWATDDIPDDLNSIRAAPGEFRAIMEMPSFYSHGLPRCSPYKKLTECQLKNPISGLLEYAQFASQTCEFNMIEQSGPPHEPRFKFQVVINGREFPPAEAGSKKVAKQDAAMKAMTILLEEAKAKDSGKSEESSHYSTEKESEKTAESQTPTPSATSFFSGKSPVTTLLECMHKLGNSCEFRLLSKEGPAHEPKFQYCVAVGAQTFPSVSAPSKKVAKQMAAEEAMKALHGEATNSMASDNQPEGMISESLDNLESMMPNKVRKIGELVRYLNTNPVGGLLEYARSHGFAAEFKLVDQSGPPHEPKFVYQAKVGGRWFPAVCAHSKKQGKQEAADAALRVLIGENEKAERMGFTEVTPVTGASLRRTMLLLSRSPEAQPKTLPLTGSTFHDQIAMLSHRCFNTLTNSFQPSLLGRKILAAIIMKKDSEDMGVVVSLGTGNRCVKGDSLSLKGETVNDCHAEIISRRGFIRFLYSELMKYNSQTAKDSIFEPAKGGEKLQIKKTVSFHLYISTAPCGDGALFDKSCSDRAMESTESRHYPVFENPKQGKLRTKVENGEGTIPVESSDIVPTWDGIRLGERLRTMSCSDKILRWNVLGLQGALLTHFLQPIYLKSVTLGYLFSQGHLTRAICCRVTRDGSAFEDGLRHPFIVNHPKVGRVSIYDSKRQSGKTKETSVNWCLADGYDLEILDGTRGTVDGPRNELSRVSKKNIFLLFKKLCSFRYRRDLLRLSYGEAKKAARDYETAKNYFKKGLKDMGYGNWISKPQEEKNFYLCPV
What does the source list for B1?
binding [1]: binds; binding [2]: binds

B2: Diacylglycerol lipase-alpha, HA-tagged (DAGLA-HA) (enzyme, UniProt Q9Y4D2 1-1042)
chain: MPGIVVFRRRWSVGSDDLVLPAIFLFLLHTTWFVILSVVLFGLVYNPHEACSLNLVDHGRGYLGILLSCMIAEMAIIWLSMRGGILYTEPRDSMQYVLYVRLAILVIEFIYAIVGIVWLTQYYTSCNDLTAKNVTLGMVVCNWVVILSVCITVLCVFDPTGRTFVKLRATKRRQRNLRTYNLRHRLEEGQATSWSRRLKVFLCCTRTKDSQSDAYSEIAYLFAEFFRDLDIVPSDIIAGLVLLRQRQRAKRNAVLDEANNDILAFLSGMPVTRNTKYLDLKNSQEMLRYKEVCYYMLFALAAYGWPMYLMRKPACGLCQLARSCSCCLCPARPRFAPGVTIEEDNCCGCNAIAIRRHFLDENMTAVDIVYTSCHDAVYETPFYVAVDHDKKKVVISIRGTLSPKDALTDLTGDAERLPVEGHHGTWLGHKGMVLSAEYIKKKLEQEMVLSQAFGRDLGRGTKHYGLIVVGHSLGAGTAAILSFLLRPQYPTLKCFAYSPPGGLLSEDAMEYSKEFVTAVVLGKDLVPRIGLSQLEGFRRQLLDVLQRSTKPKWRIIVGATKCIPKSELPEEVEVTTLASTRLWTHPSDLTIALSASTPLYPPGRIIHVVHNHPAEQCCCCEQEEPTYFAIWGDNKAFNEVIISPAMLHEHLPYVVMEGLNKVLENYNKGKTALLSAAKVMVSPTEVDLTPELIFQQQPLPTGPPMPTGLALELPTADHRNSSVRSKSQSEMSLEGFSEGRLLSPVVAAAARQDPVELLLLSTQERLAAELQARRAPLATMESLSDTESLYSFDSRRSSGFRSIRGSPSLHAVLERDEGHLFYIDPAIPEENPSLSSRTELLAADSLSKHSQDTQPLEAALGSGGVTPERPPSAAANDEEEEVGGGGGGPASRGELALHNGRLGDSPSPQVLEFAEFIDSLFNLDSKSSSFQDLYCMVVPESPTSDYAEGPKSPSQQEILLRAQFEPNLVPKPPRLFAGSADPSSGISLSPSFPLSSSGELMDLTPTGLSSQECLAADKIRTSTPTGHGASPAKQDELVISAR
What does the source list for B2?
binding [1]: binds; binding [2]: binds

Results are given in words; binding and its absence hold for the method and conditions named. Binding seen in cells or lysates may run through a third protein. A result given as binding can be weak or reduced; the word gives no strength. Where a sequence is shown, tags or fusion partners need not be part of it.
